Test results as given in PubChem BioAssay AID2685 (National Center for Advancing Translational Sciences (NCATS), 2010).
The list shows a part of the results. The main result of the screen is listed elsewhere. These columns were measured beside it and carry no call. The list favours compounds with an active or inconclusive main result. The note in brackets gives the kind of curve behind each potency; many fits are weak.

Experiment: qHTS Assay for Lipid Storage Modulators in Drosophila S3 Cells;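 for cell number change: cells counted by Cell Tracker Red CMTPX staining in the red channel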
Settings: BODIPY lipid droplet fluorescence, 18-24 h; for cell number change: measured here: cell count max response, cells fed with added oleic acid
Method in brief: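 Drosophila S3 cells loaded with oleic acid (400 uM, as added) and compounds at several concentrations; lipid droplets imaged by 488-nm laser-scanning cytometry, 500–530 nm intensity and object ratio to cell channel. Percent activity normalized to 20 uM Triacsin C.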

[1] = measured here: lipid fluorescence (Fed channel) AC50, cells fed with added oleic acid
[2] = measured here: cell number channel AC50, cells fed with added oleic acid

Compound	cell number change [%]	AC50 [1]	AC50 [2]
CC(c1nnc(SCC(=O)N2CC(=O)Nc3ccccc32)n1Cc1ccccc1)N(C)C (centres undefined)	19.5	2.31 µM [falling, partial curve]	–
O=C(COc1coc(CN2CCc3ccccc3C2)cc1=O)N1CCOCC1	–	6.51 µM [rising, partial curve, poor fit]	–
O=C(NNC(=S)Nc1cccc(C(F)(F)F)c1)c1ccc(Cl)cc1Cl	-42.3	23.1 µM [falling, single point]	5.8 µM [falling, partial curve, poor fit]
O=C(OCc1c(Cl)cccc1Cl)c1ccccn1	-3.22	–	0.651 µM [falling, single point]
OCCNc1ccc(Cl)cc1	-5.52	1.03 µM [falling, full curve, poor fit]	–
COc1cc(/C=N/NC(=S)NCCN2CCOCC2)cc(OC)c1OC	3.41	3.26 µM [rising, full curve, poor fit]	–
O=C(NCCOc1ccc(Cl)cc1)C1CCCCC1	24	–	–
O=S(=O)(Nc1ccccc1Cl)c1ccc2[nH]c(=S)oc2c1	9.66	29.1 µM [rising, single point]	–
O=C(NC1CCCC1)C1=COCCO1	17.3	20.6 µM [falling, single point]	–
O=C(Nc1ccc(NC(=O)c2ccc([N+](=O)[O-])cc2[N+](=O)[O-])cc1)c1ccco1	8.56	0.58 µM [rising, single point]	–
Cn1c(=O)c2c(nc(NCc3ccccc3)n2Cc2ccc(F)cc2)n(C)c1=O	-24.6	7.31 µM [falling, partial curve]	–
CC(=O)Nc1cccc(-c2cc(C)c3cc4c(cc3n2)OCO4)c1	-23.6	–	–
C=CCN(C(=O)CCC(=O)Nc1cc(C)on1)C(C(=O)NC(C)(C)C)c1ccc(OC)cc1 (centres undefined)	6.35	–	–
O=C(COc1ccc(S(=O)(=O)N2CCCC2)cc1)N1CCCCC1	3.6	2.91 µM [falling, single point]	–
CN1C(=O)[C@H]2[C@@H](c3ccc(F)cc3)N3C(=O)c4ccccc4NC(=O)[C@@]3(C)[C@H]2C1=O	29.9	–	–
CCc1ccc(N2C(=O)CC(N(CC3CCCO3)C(=O)/C=C/C(=O)O)C2=O)cc1 (centres undefined)	-30.3	0.82 µM [falling, single point]	5.8 µM [falling, full curve, poor fit]
Cn1c(C(=O)OCC(=O)NCCc2ccccc2)cc2sccc21	-12.3	3.66 µM [rising, full curve]	–
COc1ccccc1/C=C/C(=O)OCC(=O)c1cc(C)n(C)c1C	–	0.92 µM [falling, full curve]	–
CCc1ccc(NC(=O)CCNS(=O)(=O)c2cccc3nsnc23)cc1	43.7	29.1 µM [rising, single point]	29.1 µM [rising, single point]
CCCn1c(N)c(N(CCOC)C(=O)CSCC(=O)Nc2cccc(C)c2)c(=O)[nH]c1=O	-33	–	1.3 µM [falling, full curve]

Compound	cell number change [%]	AC50 [1]	AC50 [2]
Cc1nc(SCC(=O)N2CCC(C(N)=O)CC2)n[nH]1	–	3.26 µM [rising, single point]	–
CCN(CCCNC(=O)CC(C(=O)N1CCc2ccccc21)n1ccnc1)c1ccccc1 (centres undefined)	-23	0.58 µM [falling, single point]	4.61 µM [falling, full curve, poor fit]
COc1ccc(CNC(=O)CCOc2ccc(C(C)(C)C)cc2)cc1	58.2	–	5.17 µM [rising, partial curve]
O=[N+]([O-])c1ccc(-n2nncc2-c2ccc(Cl)cc2)cc1	–	0.651 µM [falling, single point]	–
COc1ccc(NS(=O)(=O)c2ccc(-c3n[nH]c(=S)n3Cc3ccccc3)cc2)cc1	6.94	0.651 µM [rising, full curve]	–
COc1cccc(C2CC(c3cccs3)=NN2C(=S)Nc2ccccc2)c1OC (centres undefined)	-29.6	–	–
Cc1cc(C)n(Cc2ccc(Cl)nc2)n1	-26.1	0.00517 µM [falling, full curve, poor fit]	–
CN1/C(=C\C(=O)Nc2cccnc2)c2ccccc2CC1(C)C	-31.7	25.9 µM [falling, single point]	29.1 µM [falling, single point]
CCN1CCN(Cc2ccc(NC(=O)c3cc(NC(=O)c4ccno4)cc(OC)c3)cc2C(F)(F)F)CC1	-3.76	–	–
O=C(CSc1nnc(COc2ccc(Cl)cc2)n1Cc1ccco1)N1CCNC1=O	6	0.13 µM [falling, partial curve, poor fit]	–
CC1(C)CC(=O)C2=C(C1)Nc1cc(C(=O)c3ccccc3)ccc1NC2c1ccccn1 (centres undefined)	–	16.4 µM [falling, single point]	–
COc1ccc(C(=O)CSc2nnc(NC(=O)C3CC(=O)N(c4cccc(OC)c4)C3)s2)cc1 (centres undefined)	–	0.00461 µM [falling, full curve, poor fit]	–
COc1ccc(-c2nn(-c3ccccc3)cc2/C=N/N=C(N)N)cc1OC	-19.7	10.3 µM [falling, partial curve]	–
O=C(O)C1CCN(C(=O)c2ccco2)CC1	-9.7	–	–
O=[N+]([O-])c1cnc(N2CCCCC2)c([N+](=O)[O-])c1	-24.6	29.1 µM [rising, single point]	0.651 µM [rising, single point]
CCOC(=O)/C(=C\c1ccc(C)cc1)NC(=O)c1ccccc1	-33.6	–	29.1 µM [falling, single point]
COC(=O)c1cccc(NC(=O)Cn2cnc3ccccc3c2=O)c1	48.1	–	18.4 µM [rising, single point]
Oc1c(Br)cc(Br)cc1CNc1ccccn1	8.77	23.1 µM [rising, single point]	–
CCOC(=O)c1ccc(-n2c(CN3CCN(CCO)CC3)nc3ccc([N+](=O)[O-])cc3c2=O)cc1	9.88	0.517 µM [rising, full curve, poor fit]	0.82 µM [rising, partial curve, poor fit]
COc1ccc(C(CCNCc2ccc(OC(C)C)cc2)c2ccccc2OC)cc1 (centres undefined)	-98.2	3.66 µM [falling, single point]	18.4 µM [falling, partial curve]

Reprinted from the listing, 2 compounds:
Compound	cell number change [%]	AC50 [1]	AC50 [2]
COC(=O)c1cccc(NC(=O)Cn2cnc3ccccc3c2=O)c1	48.1	–	18.4 µM [rising, single point]
Oc1c(Br)cc(Br)cc1CNc1ccccn1	8.77	23.1 µM [rising, single point]	–

Next entries follow:

Compound	cell number change [%]	AC50 [1]	AC50 [2]
COc1cccc(-c2nc(S(=O)(=O)c3ccccc3)c(N3CCOCC3)o2)c1	-21.9	5.17 µM [rising, full curve]	–
Cc1nc(SCC(O)CO)c([N+](=O)[O-])[nH]1 (centres undefined)	-12.1	0.13 µM [falling, full curve, poor fit]	–
O=C(COC(=O)c1cccnc1Cl)NCCC1=CCCCC1	-30.2	0.1 µM [rising, full curve, poor fit]	–
CCN(CC)c1ccc(C(=O)NNC(=O)CCNC(=O)c2ccccc2)cc1	-19.4	0.206 µM [falling, full curve]	–
O=C(Cn1cc(C(=O)COc2ccccc2)c2ccccc21)NCc1ccco1	-4.37	2.59 µM [rising, partial curve, poor fit]	–
Cc1onc(-c2ccccc2)c1C(=O)N1CCN(S(=O)(=O)c2ccc(OC(F)(F)F)cc2)CC1	4.5	0.58 µM [rising, single point]	–
Cc1ccc(C)c(S(=O)(=O)Nc2ccc3[nH]c(=O)[nH]c3c2)c1	17.2	20.6 µM [falling, single point]	0.00517 µM [rising, full curve, poor fit]
O=C(O)CSC(=S)N1CCCC1	–	–	0.0461 µM [rising, full curve, poor fit]
Cc1cc(C)cc(NC(=O)Oc2ccccc2N2CCCCC2)c1	36.3	–	5.8 µM [rising, partial curve]
CCn1nnnc1SCC(=O)Nc1cc(OC)cc(OC)c1	-1.42	0.461 µM [rising, full curve, poor fit]	–
Cc1ccccc1C(=O)NC(=S)NC1CCSC1=O (centres undefined)	58.9	29.1 µM [rising, single point]	16.4 µM [rising, single point]
COc1ccc(/C=C/C(=O)NCCc2ccc(OC)c(OC)c2)cc1	-36.8	5.17 µM [falling, partial curve]	6.51 µM [falling, partial curve]
CC(C)=CCCC(C)CN1CCC(n2nccc2NC(=O)C2CCCC2)CC1 (centres undefined)	-17.3	6.51 µM [rising, single point]	–
Cc1ccccc1NC(=O)CN1C(=O)NC2(CCCCC2)C1=O	34.6	16.4 µM [rising, single point]	25.9 µM [rising, single point]
C=CCn1c(Cc2cccs2)nnc1SCC(=O)Nc1cccc(OC)c1	30.3	29.1 µM [rising, single point]	14.6 µM [rising, single point]
O=C(COc1ccc(/C=N/NC(=O)c2cc3ccccc3o2)cc1Br)Nc1ccccc1	-7.18	2.06 µM [falling, partial curve]	–
COc1ccc(Cc2nn3c(-c4cc(OC)c(OC)c(OC)c4)nnc3s2)cc1	–	1.46 µM [rising, partial curve]	1.64 µM [rising, partial curve]
CCN(CC)S(=O)(=O)c1ccc(NC2=NS(=O)(=O)c3ccccc32)cc1	-0.347	–	–
